Some of the results follow. Repeats are few or missing, and single values can be far off.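 Imaging used 1,536-well plates; nuclei positive for cleaved PARP by antibody were divided by total DNA-stained nuclei to yield the apoptosis fraction. Doses for screening kept most cells viable, and cell lines differ markedly in resting and induced cleaved-PARP levels.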
Experiments:
Test in all cases: cleaved PARP positive nuclei fraction relative to DMSO control; melanoma cells; higher = more apoptosis
Details in all cases: library dose: low library concentration; 72 h
[1] = test system: WM115
[2] = test system: WM1716
[3] = test system: WM1745
[4] = test system: WM3526
[5] = test system: WM3619
[6] = test system: WM451Lu

| Structure (SMILES) | cleaved PARP positive nuclei fraction [1] [%] | cleaved PARP positive nuclei fraction [2] [%] | cleaved PARP positive nuclei fraction [3] [%] | cleaved PARP positive nuclei fraction [4] [%] | cleaved PARP positive nuclei fraction [5] [%] | cleaved PARP positive nuclei fraction [6] [%] |
| --- | --- | --- | --- | --- | --- | --- |
| CC(=O)O[C@@]12CO[C@@H]1C[C@H](O)[C@@]1(C)C(=O)[C@H](O)C3=C(C)[C@@H](OC(=O)[C@H](O)[C@@H](NC(=O)OC(C)(C)C)c4ccccc4)C[C@@](O)([C@@H](OC(=O)c4ccccc4)[C@H]21)C3(C)C [Docetaxel] + CN(C)S(=O)(=O)c1ccc2c(c1)/C(=C/c1cc3c([nH]1)CCCC3)C(=O)N2 [SU6656] (first compound 0.0001 µM, partner dose 0.4 µM) | 399 | 662 | 233 | 188 | 115 | 91.1 |
| C[C@]1(O)C[C@@H](c2nc(-c3ccc4ccc(-c5ccccc5)nc4c3)c3c(N)nccn32)C1 + COc1ccc(COc2ccc(Cc3cnc(N)nc3N)cc2OC)cc1 [GW2580] (first compound 0.4 µM, partner dose 1 µM) | 106 | 48.5 | 119 | 84.1 | 89.9 | 214 |
| C[C@]1(O)C[C@@H](c2nc(-c3ccc4ccc(-c5ccccc5)nc4c3)c3c(N)nccn32)C1 + CCN(CC)CCNC(=O)c1c(C)[nH]c(/C=C2\C(=O)Nc3ccc(F)cc32)c1C [sunitinib] (first compound 0.4 µM, partner dose 0.4 µM) | 62.7 | 56.3 | 139 | 173 | 109 | 108 |
| Cn1sc(=O)n(Cc2ccccc2)c1=O + COc1cc(N2CCC(N3CCN(C)CC3)CC2)ccc1Nc1ncc(Cl)c(Nc2ccccc2S(=O)(=O)C(C)C)n1 [NVP-TAE684] (first compound 0.4 µM, partner dose 0.08 µM) | 184 | 89.1 | 89.8 | 70.1 | 80.8 | 459 |
| NC1(c2ccc(-c3nc4ccn5c(=O)[nH]nc5c4cc3-c3ccccc3)cc2)CCC1 + O=C(O)c1ccc2c(c1)nc(Nc1cccc(Cl)c1)c1ccncc12 [CX4945] (first compound 0.4 µM, partner dose 0.4 µM) | 124 | 141 | 101 | 70.3 | 112 | 42.7 |
| Cn1sc(=O)n(Cc2ccccc2)c1=O + CCCCCCCCCCCC1=C(O)C(=O)C=C(O)C1=O [Embelin] (first compound 0.4 µM, partner dose 1.2 µM) | 39.7 | 67.1 | 219 | 67.2 | 95.3 | 93.5 |
| CN(c1ncccc1CNc1nc(Nc2ccc3c(c2)CC(=O)N3)ncc1C(F)(F)F)S(C)(=O)=O + Oc1nc(-c2ccc(C(F)(F)F)cc2)nc2c1CSCC2 [XAV939] (first compound 0.08 µM, partner dose 2 µM) | 196 | 431 | 120 | 95.6 | 91.7 | 92.9 |
| Cn1cnc2c(F)c(Nc3ccc(Br)cc3Cl)c(C(=O)NOCCO)cc21 [selumetinib] + O=C(O)c1ccc(-c2c[nH]c3ncc(-c4ccccc4)cc23)cc1C1CCCC1 [GSK650394] (first compound 0.015 µM, partner dose 0.16 µM) | 99.8 | 91 | 80.1 | 149 | 102 | 24.4 |
| CCN(CC)CCNC(=O)c1c(C)[nH]c(/C=C2\C(=O)Nc3ccc(F)cc32)c1C [sunitinib] + COc1ccc(-c2ccc3c(N4CCOCC4)nc(N4C[C@@H](C)O[C@@H](C)C4)nc3n2)cc1CO [KU0063794] (first compound 0.4 µM, partner dose 0.02 µM) | 168 | 81.2 | 109 | 99.1 | 83.8 | 67.8 |
| CN(c1ncccc1CNc1nc(Nc2ccc3c(c2)CC(=O)N3)ncc1C(F)(F)F)S(C)(=O)=O + CN(NC(=O)CC(=O)NN(C)C(=S)c1ccccc1)C(=S)c1ccccc1 [STA4783] (first compound 0.08 µM, partner dose 0.006 µM) | 65.7 | 168 | 164 | 55.9 | 104 | 129 |
| COc1ccc(C2=N[C@@H](c3ccc(Cl)cc3)[C@@H](c3ccc(Cl)cc3)N2C(=O)N2CCNC(=O)C2)c(OC(C)C)c1 [Nutlin-3] + CO[C@H]1C[C@@H]2CC[C@@H](C)[C@@](O)(O2)C(=O)C(=O)N2CCCC[C@H]2C(=O)O[C@H]([C@H](C)C[C@@H]2CC[C@@H](OCCO)[C@H](OC)C2)CC(=O)[C@H](C)/C=C(\C)[C@@H](O)[C@@H](OC)C(=O)[C@H](C)C[C@H](C)/C=C/C=C/C=C/1C [everolimus] (first compound 0.1 µM, partner dose 0.02 µM) | 169 | 88.1 | 121 | 48.7 | 154 | 146 |
| Cn1cnc2c(F)c(Nc3ccc(Br)cc3Cl)c(C(=O)NOCCO)cc21 [selumetinib] + C[C@@H](Oc1cc(-c2cnn(C3CCNCC3)c2)cnc1N)c1c(Cl)ccc(F)c1Cl [Crizotinib] (first compound 0.015 µM, partner dose 0.2 µM) | 125 | 785 | 112 | 97.2 | 90.7 | 69.6 |
| COc1ccc(C2=N[C@@H](c3ccc(Cl)cc3)[C@@H](c3ccc(Cl)cc3)N2C(=O)N2CCNC(=O)C2)c(OC(C)C)c1 [Nutlin-3] + CN(c1ncccc1CNc1nc(Nc2ccc3c(c2)CC(=O)N3)ncc1C(F)(F)F)S(C)(=O)=O [PF562271] (first compound 0.1 µM, partner dose 0.08 µM) | 148 | 154 | 91.2 | 42.6 | 177 | 131 |
| C[C@@H](N)c1ccc(C(=O)Nc2ccnc3[nH]ccc23)cc1 + COc1cc(Nc2ncc(F)c(Nc3ccc4c(n3)NC(=O)C(C)(C)O4)n2)cc(OC)c1OC [Tamatinib] (first compound 0.4 µM, partner dose 0.4 µM) | 136 | 255 | 252 | 70.5 | 54.4 | 80.6 |
| CCCCCCCCc1ccc(CCC(N)(CO)CO)cc1 [fingolimod] + Cn1cncc1[C@@](N)(c1ccc(Cl)cc1)c1ccc2c(c1)c(-c1cccc(Cl)c1)cc(=O)n2C [tipifarnib] (first compound 2 µM, partner dose 0.01 µM) | 120 | 179 | 88.4 | 420 | 94.9 | 170 |
| Cn1cnc2c(F)c(Nc3ccc(Br)cc3Cl)c(C(=O)NOCCO)cc21 [selumetinib] + Nc1nc(F)nc2c1ncn2[C@@H]1O[C@H](CO)[C@@H](O)[C@@H]1O [fludarabine] (first compound 0.015 µM, partner dose 0.2 µM) | 74.6 | 64.7 | 118 | 530 | 100 | 219 |
| Cn1cnc2c(F)c(Nc3ccc(Br)cc3Cl)c(C(=O)NOCCO)cc21 [selumetinib] + CCN(CC)CCNC(=O)c1c(C)[nH]c(/C=C2\C(=O)Nc3ccc(F)cc32)c1C [sunitinib] (first compound 0.015 µM, partner dose 0.4 µM) | 52.8 | 180 | 122 | 142 | 94.1 | 38.8 |
| CC1(C)CCC(c2ccc(Cl)cc2)=C(CN2CCN(c3ccc(C(=O)NS(=O)(=O)c4ccc(N[C@H](CCN5CCOCC5)CSc5ccccc5)c(S(=O)(=O)C(F)(F)F)c4)cc3)CC2)C1 + Cn1c(=O)n(-c2ccc(C(C)(C)C#N)cc2)c2c3cc(-c4cnc5ccccc5c4)ccc3ncc21 [NVP-BEZ235] (first compound 0.4 µM, partner dose 0.004 µM) | 342 | 86.7 | 852 | 50.2 | 141 | 111 |
| NC(=O)c1ccc(N(C(N)=O)c2c(F)cccc2F)nc1-c1ccc(F)cc1F + C#Cc1cccc(Nc2ncnc3cc(OCCOC)c(OCCOC)cc23)c1 [erlotinib] (first compound 0.4 µM, partner dose 0.8 µM) | 155 | 82.2 | 136 | 84.4 | 82.4 | 63.8 |
| CC1(C)CCC(c2ccc(Cl)cc2)=C(CN2CCN(c3ccc(C(=O)NS(=O)(=O)c4ccc(N[C@H](CCN5CCOCC5)CSc5ccccc5)c(S(=O)(=O)C(F)(F)F)c4)cc3)CC2)C1 + COc1cc(Nc2ncc(F)c(Nc3ccc4c(n3)NC(=O)C(C)(C)O4)n2)cc(OC)c1OC [Tamatinib] (first compound 0.4 µM, partner dose 0.4 µM) | 863 | 536 | 812 | 83.5 | 154 | 23.7 |
| CCN(CC)CCNC(=O)c1c(C)[nH]c(/C=C2\C(=O)Nc3ccc(F)cc32)c1C [sunitinib] + C[C@]1(c2nc3c(C(N)=O)cccc3[nH]2)CCCN1 [Veliparib] (first compound 0.4 µM, partner dose 1.4 µM) | 132 | 54.9 | 112 | 118 | 68.3 | 51.8 |
| CC(=O)O[C@@]12CO[C@@H]1C[C@H](O)[C@@]1(C)C(=O)[C@H](O)C3=C(C)[C@@H](OC(=O)[C@H](O)[C@@H](NC(=O)OC(C)(C)C)c4ccccc4)C[C@@](O)([C@@H](OC(=O)c4ccccc4)[C@H]21)C3(C)C [Docetaxel] + COc1cc2ncnc(Nc3ccc(Oc4ccccc4)cc3)c2cc1OC [SrcI1] (first compound 0.0001 µM, partner dose 2 µM) | 717 | 424 | 205 | 169 | 113 | 116 |

In another format: entries from further up
Structure (SMILES)	cleaved PARP positive nuclei fraction [1] [%]	cleaved PARP positive nuclei fraction [2] [%]	cleaved PARP positive nuclei fraction [3] [%]	cleaved PARP positive nuclei fraction [4] [%]	cleaved PARP positive nuclei fraction [5] [%]	cleaved PARP positive nuclei fraction [6] [%]
Cn1sc(=O)n(Cc2ccccc2)c1=O + COc1cc(N2CCC(N3CCN(C)CC3)CC2)ccc1Nc1ncc(Cl)c(Nc2ccccc2S(=O)(=O)C(C)C)n1 [NVP-TAE684] (first compound 0.4 µM, partner dose 0.08 µM)	184	89.1	89.8	70.1	80.8	459
NC1(c2ccc(-c3nc4ccn5c(=O)[nH]nc5c4cc3-c3ccccc3)cc2)CCC1 + O=C(O)c1ccc2c(c1)nc(Nc1cccc(Cl)c1)c1ccncc12 [CX4945] (first compound 0.4 µM, partner dose 0.4 µM)	124	141	101	70.3	112	42.7
